# According to PubChem BioAssay AID504834 (National Center for Advancing Translational Sciences (NCATS), 2011):
# The whole screen tested about 320,000 compounds, of which about 22,000 (6.9%) were called active. Inconclusive means that the source gave no clear call. Such entries were picked first, then a sample of the others. The call rests on the fitted dose curve; in most records, active means well fitted inhibition curve with a large enough effect; inconclusive means small, poorly fitted or top-dose-only effect, or another doubt; inactive means no such curve, though single readings can be large or run the other way. Where the call is inconclusive, the potency comes from a doubtful curve fit.
# Experiment: Primary qHTS for delayed death inhibitors of the malarial parasite plastid, 96 hour incubation
# Conditions: P. falciparum luciferase reporter growth; series mostly up to 28.7 µM; activity change, negative = inhibition: at the top concentration
# In short: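 Erythrocytes infected with luciferase-expressing P. falciparum were dispensed at 2% hematocrit and 0.05% parasitemia (final), then incubated with compounds 96 hours at 37 C in 5% CO2. Luminescence after detection reagent addition reported growth.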
# On the % scale 0 is the no-effect control and ±100 the full control effect; potency means the concentration at half of the fitted maximal effect.
SMILES,Potency,"activity change, negative = inhibition"
O=C(CSc1nnc2scc(-c3ccccc3)n12)N1CCN(Cc2ccccc2)CC1,"inconclusive: 0.465 µM [inhibitor, partial curve, poor fit]",
O=C(NCC(c1ccco1)N1CCc2ccccc2C1)C(=O)Nc1cc(F)ccc1F (stereo unspecified),"inconclusive: 18.5 µM [inhibitor, single point]",
CCOc1ccc(-c2nnn(CC(=O)N3CCN(c4ccc(F)cc4)CC3)n2)cc1OCC,"inconclusive: 2.94 µM [inhibitor, full curve, poor fit]",
Cc1cc2cc3c(cc2nc1SCC(=O)Nc1c(C)cccc1C)CCC3,"inconclusive: 18.5 µM [inhibitor, partial curve, poor fit]",
Cc1ccc(NC(=O)CSc2ncnc3ccccc23)cc1S(=O)(=O)N1CCOCC1,"inconclusive: 4.15 µM [inhibitor, single point]",
CC(=O)N1CCc2cc(S(=O)(=O)CCC(=O)O)ccc21,"inconclusive: 9.28 µM [inhibitor, single point]",
CCOC(=O)CNC(=O)CN1C(=O)CCS(=O)(=O)c2ccccc21,"inconclusive: 7.38 µM [inhibitor, partial curve]",
COc1ccccc1NS(=O)(=O)c1cc([N+](=O)[O-])ccc1N/N=C/c1sc(N2CCOCC2)nc1-c1ccccc1,"inconclusive: 2.62 µM [inhibitor, partial curve, poor fit]",
COCc1nnc(NC(=O)CC(C)C)s1,"inconclusive: 11.7 µM [inhibitor, single point]",
NNc1nncc2ccccc12,"inconclusive: 9.07 µM [inhibitor, single point]",
CN(C(=O)c1ccc(NC(=O)Cc2cccc(NC(=O)C3CCCN(C(=O)C4CCCC4)C3)c2)cc1)C1CCCC1 (stereo unspecified),active: 3.7 µM,
CCOc1ccc(N(CC(=O)Nc2ccc(OC)cc2)S(C)(=O)=O)cc1,"inconclusive: 13.1 µM [inhibitor, partial curve, poor fit]",
COc1ccc(NC(=O)[C@H](COCc2ccccc2)NC(=O)OC(C)(C)C)cc1,"inconclusive: 18.5 µM [inhibitor, single point]",
CC(C)CNC(=O)c1cc([N+](=O)[O-])ccc1N1CCCCC1,,inactive: 6.5%
CC(c1ccccc1)n1cnc2ccccc21 (stereo unspecified),,inactive: 32%
NC(=O)C1CCN(c2oc(-c3ccc(F)cc3)nc2S(=O)(=O)c2ccccc2)CC1,"inconclusive: 13.1 µM [inhibitor, single point]",
COC(=O)c1cn(-c2ccccc2)nc1-c1ccncc1,,inactive: -1.19%
COc1ccc(CCNC(=O)c2ccc(CN3CCC(Cc4ccccc4)CC3)cc2)cc1,"inconclusive: 18.5 µM [inhibitor, single point]",
Cc1cccc(N(C)C(=O)CCS(=O)(=O)c2cccc3nonc23)c1,"inconclusive: 18.5 µM [inhibitor, single point]",
COc1ccc(-c2c[n+]3c(n2-c2ccccc2)SCC3)cc1,"inconclusive: 0.233 µM [inhibitor, full curve]",
O=C1c2cccc3c(Cl)ccc(c23)C(=O)N1O,"inconclusive: 18.5 µM [inhibitor, single point]",
CCCOc1ccc(N2C(=O)C3C4C=CC(CC4)C3C2=O)cc1 (stereo unspecified),"inconclusive: 4.65 µM [inhibitor, partial curve, poor fit]",

# Another view of four compounds above.
SMILES | Potency | activity change, negative = inhibition
CCOc1ccc(N(CC(=O)Nc2ccc(OC)cc2)S(C)(=O)=O)cc1 | inconclusive: 13.1 µM [inhibitor, partial curve, poor fit] | 
COc1ccc(NC(=O)[C@H](COCc2ccccc2)NC(=O)OC(C)(C)C)cc1 | inconclusive: 18.5 µM [inhibitor, single point] | 
CC(C)CNC(=O)c1cc([N+](=O)[O-])ccc1N1CCCCC1 |  | inactive: 6.5%
CC(c1ccccc1)n1cnc2ccccc21 (stereo unspecified) |  | inactive: 32%

# Continuation:

SMILES,Potency,"activity change, negative = inhibition"
CCOc1ccc(C(C)NC(=O)C2CCCC2)cc1 (stereo unspecified),"inconclusive: 9.28 µM [inhibitor, single point]",
Cc1ccc(C(=O)N/C(=C\c2cn(C)c3ccccc23)C(=O)N2CCN(C)CC2)cc1,"inconclusive: 18.5 µM [inhibitor, single point]",
CC1CN(C(=O)/C=C/c2ccc(SC(F)F)cc2)CC(C)O1 (stereo unspecified),,inactive: -15.2%
COc1ccc(C)c2sc(NNC(=O)COc3ccccc3)nc12,,inactive: 45.1%
CCOC(=O)[C@H]1[C@H]2COc3ccccc3[C@@H]2N2C(=O)c3cc(OC)ccc3NC(=O)[C@@]12C,"inconclusive: 16.5 µM [inhibitor, partial curve, poor fit]",
O=C1CCCN1CC(=O)N1CCCC(N2CCN(c3cccc(Cl)c3)CC2)C1 (stereo unspecified),"inconclusive: 11.7 µM [inhibitor, partial curve, poor fit]",
Cc1ccc(S(=O)(=O)N2CCC(C(=O)Nc3ccccc3N3CCCC3)CC2)cc1,,inactive: 0%
Cc1ccc2oc(-c3ccc(NC(=O)c4cccnc4)cc3)nc2c1,,inactive: 55.6%
O=C(Nc1ccccc1)Nc1ccccc1C(=O)NCC1CC1,,inactive: 11.6%
COCCNC(=O)COc1cccc(Oc2ccccc2)c1,"inconclusive: 0.0329 µM [inhibitor, full curve]",
CCOC(=O)c1sc(NC(=S)NC(=O)c2ccc(OC)cc2)nc1C,active: 2.94 µM,
COc1ccc2[nH]c(=O)c(C(c3nnnn3C3CCCC3)N3CCN(Cc4ccc5c(c4)OCO5)CC3)cc2c1 (stereo unspecified),"inconclusive: 9.28 µM [inhibitor, partial curve, poor fit]",
COC(=O)C1CCN(S(=O)(=O)CCNC(=O)c2ccc3c(c2)OCO3)CC1,,inactive: 27.7%
COc1ccccc1CN1CC(C(=O)NCc2ccc(C)c(F)c2)CCC1=O (stereo unspecified),"inconclusive: 4.65 µM [inhibitor, partial curve]",
O=C(c1cc2cc(Br)ccc2[nH]1)N1CCC2(CC1)OCCO2,"inconclusive: 13.1 µM [inhibitor, single point]",
CCc1ccccc1N(C(C)=O)c1nc(CN=C=S)cs1,"inconclusive: 10.4 µM [inhibitor, single point]",
COC(=O)Cc1ccc(NC(=O)c2cccs2)cc1,,inactive: 40.5%
c1csc(C(c2nnnn2C2CCCC2)N2CCOCC2)c1 (stereo unspecified),,inactive: -21.4%
CCCCC(=O)NC(Nc1sc2c(c1C(N)=O)CCCC2)(C(=O)OCC)C(F)(F)F (stereo unspecified),"inconclusive: 11.7 µM [inhibitor, single point]",
CSc1cccc(NC(=O)/C=C/c2ccccc2)c1,active: 10.4 µM,
CCOC(=O)C1=CC[C@H]2c3c(c4ccccc4n3C)C[C@H]1N2C,"inconclusive: 4.65 µM [inhibitor, single point]",
O=C(c1ccc(Cl)c(S(=O)(=O)N2CCCCCC2)c1)N1CCN(c2ccccc2O)CC1,"inconclusive: 11.7 µM [inhibitor, single point]",

SMILES,Potency,"activity change, negative = inhibition"
CCOC(=O)c1c(/N=C/c2cc(C)ccc2O)sc2c1CCN(C)C2,"inconclusive: 18.5 µM [inhibitor, single point]",
COCCNS(=O)(=O)c1cc2[nH]c3c(c2cc1C)C(=O)CC(C)(C)C3,"inconclusive: 10.4 µM [inhibitor, single point]",
COc1ccc(CCNC(=O)C(=O)NCC2CCCN2S(=O)(=O)c2ccc(OC)cc2)cc1 (stereo unspecified),"inconclusive: 9.28 µM [inhibitor, partial curve]",
CCOC(=O)c1c(C)[nH]c(C(=O)N/N=C/c2ccc(Br)cc2)c1C,"inconclusive: 5.86 µM [inhibitor, partial curve, poor fit]",
O=C(c1ccc(Cl)cc1)N1CCN(c2cc(=O)[nH]nc2-c2ccccc2)CC1,"inconclusive: 0.329 µM [inhibitor, full curve]",
Cc1ccccc1N1CCN(C2CCCN(C(=O)CCC(F)(F)F)C2)CC1 (stereo unspecified),"inconclusive: 18.5 µM [inhibitor, single point]",
CCOc1ccc(N2CC(O)(c3cccs3)[N+]3=C2CCCC3)cc1 (stereo unspecified),"inconclusive: 2.62 µM [inhibitor, full curve, poor fit]",
CCC(=O)Oc1ccc2c(c1)O/C(=C\c1ccco1)C2=O,,inactive: 37.6%
O=C1CC(NS(=O)(=O)c2ccccc2)CN1c1ccc2c(c1)OCCO2 (stereo unspecified),"inconclusive: 3.7 µM [inhibitor, single point]",
CN(C)c1cc[n+](CC[n+]2ccc(N(C)C)cc2)cc1,"inconclusive: 18.5 µM [inhibitor, single point]",
CSc1nsc(/C=C/Nc2ccc(O)cc2C)c1C#N,"inconclusive: 16.5 µM [inhibitor, partial curve, poor fit]",
CCOc1cc(/C=N/NC(N)=O)cc(Br)c1OCc1ccccc1F,,inactive: -23.7%
Cc1ccc(-c2nnc(Nc3ccc(CC(N)=O)cc3)c3ccccc23)cc1,"inconclusive: 0.0185 µM [inhibitor, full curve, poor fit]",
COc1ccc(S(=O)(=O)CCC(=O)N2CC(=O)N(CCc3ccccc3)C(=O)C2)cc1,"inconclusive: 14.7 µM [inhibitor, single point]",
O=C(CN(C(=O)c1csnn1)c1ccc2c(c1)OCCO2)NCc1ccc(F)cc1,,inactive: -13.2%
COc1ccc(C(C)C)cc1S(=O)(=O)n1cnc(C)c1,"inconclusive: 9.28 µM [inhibitor, partial curve, poor fit]",
O=C(c1nn2c(C(F)(F)F)cc(-c3cccs3)nc2c1Br)N1CCCc2ccccc21,"inconclusive: 11.7 µM [inhibitor, single point]",
Cc1cc(=O)n2nc(N3CCC(C(=O)NCc4cccc(Br)c4)CC3)sc2n1,"inconclusive: 18.5 µM [inhibitor, single point]",
CCCS(=O)(=O)c1c(S(=O)(=O)CCC)c2cc(-c3ccncc3)ccn2c1C(=O)OC,,inactive: -17.9%
CC1CCN(C(=O)CN2C(=O)C(C)(C)Oc3ccc(C(=O)NC4CCCC4)cc32)CC1,"inconclusive: 7.38 µM [inhibitor, partial curve, poor fit]",
Cc1ccc(CN2C(=O)CCC2C(=O)NCCN2CCN(c3cccc(Cl)c3)CC2)cc1 (stereo unspecified),"inconclusive: 5.86 µM [inhibitor, partial curve, poor fit]",
Cc1ccccc1Nc1nc(CSc2nnc(-c3ccoc3C)n2C)cs1,,inactive: 62.5%
